# Reference: the supplement of paper PMC11438910
# This is one part of the list. The signal is at background level for most entries.
# B1: 4-127.5 (protein)
# chain 1: QVQLQESGPGLVKPSETLSLTCAVSGYSISSGYGWSWIRQPPGKGLEWIGYIGGSDSSTNYNPSLKSRVTISKDTSKNQLSLKLRSVTAADTAVYYCGSRGAVAGLGGLDSWGQGLLVTVSS
# chain 2: QSVLTQPPSVSGAPGQRVTISCTGSSSNIGAGYGVQWYQQLPGTAPKLLIYENNKRPSGVFDRFSGSQSGTSGSLTITGLQSEDEADYYCQSYDSSLKAVLFGGGTRLTVL
# Tests used:
# Experiment in all cases: fluorescence intensity of antibody binding to polysaccharide-coupled beads; higher = stronger binding
# [1] = target: pneumococcal polysaccharide Pn16F
# [2] = target: pneumococcal polysaccharide Pn17A
# [3] = target: pneumococcal polysaccharide Pn17F
# [4] = target: pneumococcal polysaccharide Pn18A
# [5] = target: pneumococcal polysaccharide Pn18B
# [6] = target: pneumococcal polysaccharide Pn18C
# [7] = target: pneumococcal polysaccharide Pn18F
# [8] = target: pneumococcal polysaccharide Pn19A
# [9] = target: pneumococcal polysaccharide Pn19B
# [10] = target: pneumococcal polysaccharide Pn19C
# [11] = target: pneumococcal polysaccharide Pn19F
# [12] = target: pneumococcal polysaccharide Pn2
# [13] = target: pneumococcal polysaccharide Pn20A
# [14] = target: pneumococcal polysaccharide Pn20B
# [15] = target: pneumococcal polysaccharide Pn21
# [16] = target: pneumococcal polysaccharide Pn22A
# [17] = target: pneumococcal polysaccharide Pn22F
# [18] = target: pneumococcal polysaccharide Pn23A
# [19] = target: pneumococcal polysaccharide Pn23B
# [20] = target: pneumococcal polysaccharide Pn23F
# [21] = target: pneumococcal polysaccharide Pn24A
# [22] = target: pneumococcal polysaccharide Pn24B
# [23] = target: pneumococcal polysaccharide Pn24F
# [24] = antibody concentration 81.7561 ng/mL
# [25] = antibody concentration 437.17 ng/mL
# [26] = antibody concentration 2337.65 ng/mL
# [27] = antibody concentration 12500 ng/mL
# [28] = antibody concentration 0.1 ng/mL
# [29] = antibody concentration 0.534724 ng/mL
# [30] = antibody concentration 2.8593 ng/mL
# [31] = antibody concentration 15.2894 ng/mL
binder,measurement,setting,value
B1,fluorescence intensity,[1]; [24],25 MFI
same,fluorescence intensity,[1]; [25],26 MFI
same,fluorescence intensity,[1]; [26],31.5 MFI
same,fluorescence intensity,[1]; [27],48.5 MFI
same,fluorescence intensity,[2]; [28],21.5 MFI
same,fluorescence intensity,[2]; [29],22 MFI
same,fluorescence intensity,[2]; [30],21 MFI
same,fluorescence intensity,[2]; [31],21 MFI
same,fluorescence intensity,[2]; [24],21.5 MFI
same,fluorescence intensity,[2]; [25],21 MFI
same,fluorescence intensity,[2]; [26],22.2 MFI
same,fluorescence intensity,[2]; [27],29 MFI
same,fluorescence intensity,[3]; [28],28.5 MFI
same,fluorescence intensity,[3]; [29],26.8 MFI
same,fluorescence intensity,[3]; [30],26.8 MFI
same,fluorescence intensity,[3]; [31],26 MFI
same,fluorescence intensity,[3]; [24],26 MFI
same,fluorescence intensity,[3]; [25],25.8 MFI
same,fluorescence intensity,[3]; [26],29.5 MFI
same,fluorescence intensity,[3]; [27],34.5 MFI
same,fluorescence intensity,[4]; [28],24 MFI
same,fluorescence intensity,[4]; [29],24 MFI
same,fluorescence intensity,[4]; [30],25 MFI
same,fluorescence intensity,[4]; [31],25.5 MFI
same,fluorescence intensity,[4]; [24],24.5 MFI
same,fluorescence intensity,[4]; [25],24.5 MFI
same,fluorescence intensity,[4]; [26],26.5 MFI
same,fluorescence intensity,[4]; [27],37.5 MFI
same,fluorescence intensity,[5]; [28],30.5 MFI
same,fluorescence intensity,[5]; [29],32 MFI
same,fluorescence intensity,[5]; [30],31.5 MFI
same,fluorescence intensity,[5]; [31],30.5 MFI
same,fluorescence intensity,[5]; [24],31 MFI
same,fluorescence intensity,[5]; [25],32.2 MFI
same,fluorescence intensity,[5]; [26],37.5 MFI
same,fluorescence intensity,[5]; [27],50.5 MFI
same,fluorescence intensity,[6]; [28],20 MFI
same,fluorescence intensity,[6]; [29],18.5 MFI
same,fluorescence intensity,[6]; [30],20.2 MFI
same,fluorescence intensity,[6]; [31],19.2 MFI
same,fluorescence intensity,[6]; [24],20 MFI
same,fluorescence intensity,[6]; [25],20.5 MFI
same,fluorescence intensity,[6]; [26],24 MFI
same,fluorescence intensity,[6]; [27],28 MFI
same,fluorescence intensity,[7]; [28],23.5 MFI
same,fluorescence intensity,[7]; [29],25.5 MFI
same,fluorescence intensity,[7]; [30],24.5 MFI
same,fluorescence intensity,[7]; [31],22.5 MFI
same,fluorescence intensity,[7]; [24],25 MFI
same,fluorescence intensity,[7]; [25],25 MFI
same,fluorescence intensity,[7]; [26],33.5 MFI
same,fluorescence intensity,[7]; [27],48.8 MFI
same,fluorescence intensity,[8]; [28],18.5 MFI
same,fluorescence intensity,[8]; [29],19.5 MFI
same,fluorescence intensity,[8]; [30],19 MFI
same,fluorescence intensity,[8]; [31],19.5 MFI
same,fluorescence intensity,[8]; [24],19 MFI
same,fluorescence intensity,[8]; [25],19 MFI
same,fluorescence intensity,[8]; [26],21.5 MFI
same,fluorescence intensity,[8]; [27],26 MFI
same,fluorescence intensity,[9]; [28],30.2 MFI
same,fluorescence intensity,[9]; [29],29.5 MFI
same,fluorescence intensity,[9]; [30],29 MFI
same,fluorescence intensity,[9]; [31],31 MFI
same,fluorescence intensity,[9]; [24],29 MFI
same,fluorescence intensity,[9]; [25],33 MFI
same,fluorescence intensity,[9]; [26],55 MFI
same,fluorescence intensity,[9]; [27],306 MFI
same,fluorescence intensity,[10]; [28],26.8 MFI
same,fluorescence intensity,[10]; [29],24.8 MFI
same,fluorescence intensity,[10]; [30],27 MFI
same,fluorescence intensity,[10]; [31],25.5 MFI
same,fluorescence intensity,[10]; [24],27.5 MFI
same,fluorescence intensity,[10]; [25],26 MFI
same,fluorescence intensity,[10]; [26],42 MFI
same,fluorescence intensity,[10]; [27],200 MFI
same,fluorescence intensity,[11]; [28],26 MFI
same,fluorescence intensity,[11]; [29],26.2 MFI
same,fluorescence intensity,[11]; [30],26.5 MFI
same,fluorescence intensity,[11]; [31],26.5 MFI
same,fluorescence intensity,[11]; [24],27.2 MFI
same,fluorescence intensity,[11]; [25],27.8 MFI
same,fluorescence intensity,[11]; [26],33.5 MFI
same,fluorescence intensity,[11]; [27],35.5 MFI
same,fluorescence intensity,[12]; [28],21 MFI
same,fluorescence intensity,[12]; [29],20.2 MFI
same,fluorescence intensity,[12]; [30],21.5 MFI
same,fluorescence intensity,[12]; [31],21 MFI
same,fluorescence intensity,[12]; [24],21 MFI
same,fluorescence intensity,[12]; [25],21.5 MFI
same,fluorescence intensity,[12]; [26],26 MFI
same,fluorescence intensity,[12]; [27],38.5 MFI
same,fluorescence intensity,[13]; [28],24 MFI
same,fluorescence intensity,[13]; [29],24 MFI
same,fluorescence intensity,[13]; [30],23.5 MFI
same,fluorescence intensity,[13]; [31],25 MFI
same,fluorescence intensity,[13]; [24],24.8 MFI
same,fluorescence intensity,[13]; [25],25 MFI
same,fluorescence intensity,[13]; [26],39.5 MFI
same,fluorescence intensity,[13]; [27],202 MFI
same,fluorescence intensity,[14]; [28],24.5 MFI
same,fluorescence intensity,[14]; [29],24.5 MFI
same,fluorescence intensity,[14]; [30],25 MFI
same,fluorescence intensity,[14]; [31],24.5 MFI
same,fluorescence intensity,[14]; [24],25 MFI
same,fluorescence intensity,[14]; [25],24.2 MFI
same,fluorescence intensity,[14]; [26],27.5 MFI
same,fluorescence intensity,[14]; [27],52.8 MFI
same,fluorescence intensity,[15]; [28],19 MFI
same,fluorescence intensity,[15]; [29],19.5 MFI
same,fluorescence intensity,[15]; [30],18.5 MFI
same,fluorescence intensity,[15]; [31],19.5 MFI
same,fluorescence intensity,[15]; [24],19.5 MFI
same,fluorescence intensity,[15]; [25],19 MFI
same,fluorescence intensity,[15]; [26],21 MFI
same,fluorescence intensity,[15]; [27],25 MFI
same,fluorescence intensity,[16]; [28],23 MFI
same,fluorescence intensity,[16]; [29],21 MFI
same,fluorescence intensity,[16]; [30],21.5 MFI
same,fluorescence intensity,[16]; [31],22 MFI
same,fluorescence intensity,[16]; [24],21.5 MFI
same,fluorescence intensity,[16]; [25],23.5 MFI
same,fluorescence intensity,[16]; [26],29 MFI
same,fluorescence intensity,[16]; [27],80 MFI
same,fluorescence intensity,[17]; [28],31.8 MFI
same,fluorescence intensity,[17]; [29],31 MFI
same,fluorescence intensity,[17]; [30],28.2 MFI
same,fluorescence intensity,[17]; [31],30.5 MFI
same,fluorescence intensity,[17]; [24],32.5 MFI
same,fluorescence intensity,[17]; [25],30.2 MFI
same,fluorescence intensity,[17]; [26],36.2 MFI
same,fluorescence intensity,[17]; [27],39 MFI
same,fluorescence intensity,[18]; [28],24.5 MFI
same,fluorescence intensity,[18]; [29],28.5 MFI
same,fluorescence intensity,[18]; [30],27.2 MFI
same,fluorescence intensity,[18]; [31],25.5 MFI
same,fluorescence intensity,[18]; [24],29.2 MFI
same,fluorescence intensity,[18]; [25],31.5 MFI
same,fluorescence intensity,[18]; [26],54 MFI
same,fluorescence intensity,[18]; [27],98 MFI
same,fluorescence intensity,[19]; [28],33 MFI
same,fluorescence intensity,[19]; [29],32 MFI
same,fluorescence intensity,[19]; [30],32 MFI
same,fluorescence intensity,[19]; [31],32 MFI
same,fluorescence intensity,[19]; [24],31.8 MFI
same,fluorescence intensity,[19]; [25],33.5 MFI
same,fluorescence intensity,[19]; [26],35 MFI
same,fluorescence intensity,[19]; [27],47 MFI
same,fluorescence intensity,[20]; [28],17.5 MFI
same,fluorescence intensity,[20]; [29],19.2 MFI
same,fluorescence intensity,[20]; [30],18.8 MFI
same,fluorescence intensity,[20]; [31],17.5 MFI
same,fluorescence intensity,[20]; [24],18.2 MFI
same,fluorescence intensity,[20]; [25],20.5 MFI
same,fluorescence intensity,[20]; [26],22.8 MFI
same,fluorescence intensity,[20]; [27],24.5 MFI
same,fluorescence intensity,[21]; [28],16.5 MFI
same,fluorescence intensity,[21]; [29],15 MFI
same,fluorescence intensity,[21]; [30],15.8 MFI
same,fluorescence intensity,[21]; [31],16 MFI
same,fluorescence intensity,[21]; [24],16 MFI
same,fluorescence intensity,[21]; [25],16.2 MFI
same,fluorescence intensity,[21]; [26],18.5 MFI
same,fluorescence intensity,[21]; [27],33.8 MFI
same,fluorescence intensity,[22]; [28],18.5 MFI
same,fluorescence intensity,[22]; [29],19 MFI
same,fluorescence intensity,[22]; [30],20.5 MFI
same,fluorescence intensity,[22]; [31],19 MFI
same,fluorescence intensity,[22]; [24],20.2 MFI
same,fluorescence intensity,[22]; [25],20.5 MFI
same,fluorescence intensity,[22]; [26],26.5 MFI
same,fluorescence intensity,[22]; [27],65 MFI
same,fluorescence intensity,[23]; [28],19.8 MFI
same,fluorescence intensity,[23]; [29],18.8 MFI
same,fluorescence intensity,[23]; [30],18 MFI
same,fluorescence intensity,[23]; [31],16.5 MFI
same,fluorescence intensity,[23]; [24],18.5 MFI
same,fluorescence intensity,[23]; [25],22 MFI
same,fluorescence intensity,[23]; [26],31.5 MFI
same,fluorescence intensity,[23]; [27],58 MFI

# A stretch from the list above, for reference:
binder,measurement,setting,value
B1,fluorescence intensity,[10]; [25],26 MFI
same,fluorescence intensity,[10]; [26],42 MFI
same,fluorescence intensity,[10]; [27],200 MFI
same,fluorescence intensity,[11]; [28],26 MFI
same,fluorescence intensity,[11]; [29],26.2 MFI
same,fluorescence intensity,[11]; [30],26.5 MFI
same,fluorescence intensity,[11]; [31],26.5 MFI
same,fluorescence intensity,[11]; [24],27.2 MFI
same,fluorescence intensity,[11]; [25],27.8 MFI
same,fluorescence intensity,[11]; [26],33.5 MFI
same,fluorescence intensity,[11]; [27],35.5 MFI
same,fluorescence intensity,[12]; [28],21 MFI
same,fluorescence intensity,[12]; [29],20.2 MFI
same,fluorescence intensity,[12]; [30],21.5 MFI
same,fluorescence intensity,[12]; [31],21 MFI
same,fluorescence intensity,[12]; [24],21 MFI
same,fluorescence intensity,[12]; [25],21.5 MFI
same,fluorescence intensity,[12]; [26],26 MFI
same,fluorescence intensity,[12]; [27],38.5 MFI
same,fluorescence intensity,[13]; [28],24 MFI
same,fluorescence intensity,[13]; [29],24 MFI
same,fluorescence intensity,[13]; [30],23.5 MFI
same,fluorescence intensity,[13]; [31],25 MFI
same,fluorescence intensity,[13]; [24],24.8 MFI
same,fluorescence intensity,[13]; [25],25 MFI
same,fluorescence intensity,[13]; [26],39.5 MFI
same,fluorescence intensity,[13]; [27],202 MFI
same,fluorescence intensity,[14]; [28],24.5 MFI
same,fluorescence intensity,[14]; [29],24.5 MFI
same,fluorescence intensity,[14]; [30],25 MFI
same,fluorescence intensity,[14]; [31],24.5 MFI
same,fluorescence intensity,[14]; [24],25 MFI
same,fluorescence intensity,[14]; [25],24.2 MFI
same,fluorescence intensity,[14]; [26],27.5 MFI
same,fluorescence intensity,[14]; [27],52.8 MFI
same,fluorescence intensity,[15]; [28],19 MFI
same,fluorescence intensity,[15]; [29],19.5 MFI
same,fluorescence intensity,[15]; [30],18.5 MFI
same,fluorescence intensity,[15]; [31],19.5 MFI
same,fluorescence intensity,[15]; [24],19.5 MFI
same,fluorescence intensity,[15]; [25],19 MFI
same,fluorescence intensity,[15]; [26],21 MFI
same,fluorescence intensity,[15]; [27],25 MFI
same,fluorescence intensity,[16]; [28],23 MFI
same,fluorescence intensity,[16]; [29],21 MFI
same,fluorescence intensity,[16]; [30],21.5 MFI
same,fluorescence intensity,[16]; [31],22 MFI
same,fluorescence intensity,[16]; [24],21.5 MFI
same,fluorescence intensity,[16]; [25],23.5 MFI
